These are yes or no findings as the source states them, for the method shown. In cells and extracts the contact can be indirect. Tags and fused reporters may be left off the sequences shown.
Target: T1, HA-tagged syndecan-4 (HA-SDC4) (human) (UniProt P31431)
T1 sequence: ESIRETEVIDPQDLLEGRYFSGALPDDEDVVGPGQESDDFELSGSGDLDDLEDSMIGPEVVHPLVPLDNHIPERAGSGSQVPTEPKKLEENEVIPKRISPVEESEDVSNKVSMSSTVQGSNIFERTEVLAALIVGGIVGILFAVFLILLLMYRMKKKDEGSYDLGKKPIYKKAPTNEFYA
Test: co-IP; H9c2 cells transfected with HA-SDC4 and untagged MLP, basal conditions, lysis buffer; IP with anti-HA, blot with anti-MLP

Chains of the proteins cited; added tags and fusions are not shown.
UniProt P50461: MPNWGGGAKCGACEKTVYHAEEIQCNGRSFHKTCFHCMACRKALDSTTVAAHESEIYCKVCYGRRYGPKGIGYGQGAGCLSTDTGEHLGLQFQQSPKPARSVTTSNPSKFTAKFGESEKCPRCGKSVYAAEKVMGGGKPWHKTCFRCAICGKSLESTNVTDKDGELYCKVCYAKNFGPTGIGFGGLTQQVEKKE

untagged human MLP expressed in H9c2 cells (from UniProt P50461 1-194)
binding: no binding
